Measured values: patent publication US20220119513A1
Numbering of substitutions follows the chain as printed. In names and notes the source's numbering stands. Results are given in words; binding and its absence hold for the method and conditions named. Some binding calls cover weakened binding; strength is not graded here.

The chains behind the UniProt entries cited, without tags or fusion partners. Where a name states a change or a piece, a line headed by the entry shows the natural chain unless it says otherwise.
UniProt P01137: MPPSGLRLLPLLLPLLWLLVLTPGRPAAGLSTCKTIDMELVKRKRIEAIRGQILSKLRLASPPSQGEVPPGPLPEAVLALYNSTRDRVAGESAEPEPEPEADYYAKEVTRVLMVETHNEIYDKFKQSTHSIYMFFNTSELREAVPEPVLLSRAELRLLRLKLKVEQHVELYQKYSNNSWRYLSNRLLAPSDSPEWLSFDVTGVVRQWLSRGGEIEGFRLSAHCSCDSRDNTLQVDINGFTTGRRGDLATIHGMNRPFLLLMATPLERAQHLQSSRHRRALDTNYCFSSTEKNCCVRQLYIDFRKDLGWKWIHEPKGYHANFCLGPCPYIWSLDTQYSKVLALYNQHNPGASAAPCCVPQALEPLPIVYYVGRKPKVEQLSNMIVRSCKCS

What was measured:
[1] = molecular target: human TGFβ1 (PeproTech) (human) (UniProt P01137); assay: HDX-MS epitope mapping, TGFβ1 with and without mAb
[2] = molecular target: canine TGFβ3 (canine); assay: SPR, TGFβ on chip
[3] = molecular target: mature TGFβ1 homodimer (co-crystal) (Homo sapiens (Human)) (UniProt P01137); assay: X-ray co-crystal structure
[4] = molecular target: feline TGFβ1 (feline) (UniProt P01137); assay: SPR
[5] = molecular target: T1, feline TGFβ2 (feline); assay: SPR
T1 sequence: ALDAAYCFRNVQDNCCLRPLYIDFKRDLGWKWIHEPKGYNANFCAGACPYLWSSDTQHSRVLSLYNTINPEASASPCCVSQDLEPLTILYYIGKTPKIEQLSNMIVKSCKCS

[6] = molecular target: T2, feline TGFβ3 (feline); assay: SPR
T2 sequence: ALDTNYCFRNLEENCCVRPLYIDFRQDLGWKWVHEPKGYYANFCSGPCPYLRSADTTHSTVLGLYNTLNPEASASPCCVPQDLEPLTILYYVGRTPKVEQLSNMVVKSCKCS

B1: canSL501 (caninized VH3/FW2/Q110D+VL2) (antibody, V domains shown)
VH: EVQLVESGGDLVKPGGSLRLSCVASGFTFSSYGMHWVRQAPGKELEWVAVISYDGSIKYYADAVKGRFTISRDNAKNTLYLQMNSLRAEDTAVYYCARTGEYSGYDTDPDYSWGQGTTVTVSS
VL: EIVMTQSPGSLAGSAGESVSINCRASQGIGDDLGWYQQKPGERPKLLIYGTSTLQSGVPARFSSSGSGTDFTLTINNLQAEDVGDYYCLQDSNYPLTFGAGTK
B1 was tested, and the binding [1] was “binds”.

B2: mHcLb (antibody, V domains shown)
VH: QVQLEESGPELVRPGASVKLSCKASGYIFITYWMNWVKQRPGQGLEWIGQIFPASGSTNYNEMFEGKATLTVDTSSSTAYMQLSSLTSEDSAVYYCARGDGNYALDAMDYWGQGT
VL: DIVLTQTPASLAVSLGQRATISCRASESVDSYGNSFMHWYQQKSGQPPKLLIYLASNLESGVPARFSGSGSRTDFTLTIDPVEADDAATYYCQQNNEDPLTFGAGTK
For B2, the binding [1] was “binds”.

B3: Can04H09 VH1/VL3 (antibody, V domains shown)
VH: EVQLVQSGAEVKKPGASVKVSCKTSGYTFISSWMNWVRQAPGAGLDWMGQIYPGDGDTNYNGKFKGRVTLTADTSTSTAYMELSSLRAGDIAVYYCARHYDGSTDYWGQGTLVTVSS
VL: EIVMTQSPASLSLSQEEKVTITCRASENIYSNLAWYQQKPGQAPKLLIYAATNLADGVPSRFSGSGSGTDFSFTISSLEPEDVAVYYCQHFWGTPYTFGQGTK
In the case of B3, the binding [2] is reported as “binds”.

B4: Can04H09 VH1/VL4 (antibody, V domains shown)
VH: B3 VH
VL: B3 VL with E16G, K39R, F73L
In the case of B4, the binding [2] is reported as “binds”.

B5: Can04H09 VH2/VL4 (antibody, V domains shown)
VH: B3 VH with G8A, T28S, I30T, R38Q, A43K, T74K, A88S, G89E, I91A
VL: B3 VL with E16G, K39R, F73L
B5 was tested, and the binding [2] was “binds”.

B6: Can04H09 VH3/VL3 (antibody, V domains shown)
VH: B3 VH with G8A, I30T, R38Q, G89E, I91T
VL: B3 VL
B6 was tested, and the binding [2] was “binds”.

B7: Can04H09 VH3/VL4 (antibody, V domains shown)
VH: B3 VH with G8A, I30T, R38Q, G89E, I91T
VL: B3 VL with E16G, K39R, F73L
B7 was tested, and the binding [2] was “binds”.

B8: ZTS-426 Fab (Fab, V domains shown)
VH: B3 VH
VL: B3 VL with E16G, K39R, F73L
For B8, the binding [3] was “binds”.

B9: fel04H09-17 (antibody, V domains shown)
VH: QVLLVQSGAEVRRPGASVKIFCKASGYSFTSSWMNWLRQAPAQGFEWMGQIYPGDGDTNYNGKFKGRLTLTADTSTDTAYMELSSLRSADTAVYYCARHYDGSTDYWGHGTIVTVSS
VL: AITMTQSPGSLAGSPGQQVTMNCRASENIYSNLAWYQQKPGQHPKLLIYAATNLADGVPDRFSGSGSGTDFTLTISNLQAEDVASYYCQHFWGTPYTFGGGT
With B9 the binding [4] was “binds”, the binding [5] was “binds” and the binding [6] was “binds”.

B10: fel04H09-18 (antibody, V domains shown)
VH: B9 VH
VL: DIVMTQTPLSLPVTPGEPASISCRASENIYSNLAWYLQKPGQSPRLLIYAATNLADGVPSRFSGSGSGTDFTLRISSVEADDVGVYYCQHFWGTPYTFGQGT
For B10, the binding [4] was “binds”, the binding [5] was “binds” and the binding [6] was “binds”.

B11: fel04H09-19 (antibody, V domains shown)
VH: B9 VH
VL: EIQMTQSPSSLSASPGDRVTITCRASENIYSNLAWYQQKPGKVPKLLIYAATNLADGVPSRFSGSGSGTDFTLTISSLEPEDAATYYCQHFWGTPYTFGGGT
B11 was tested, and the binding [4] was “binds”, the binding [5] was “binds” and the binding [6] was “binds”.

B12: fel04H09-20 (antibody, V domains shown)
VH: B9 VH with R13K, G15E, L37V, D77N, A89T, T91M, H109Q, T111A, I112L
VL: B9 VL
B12 was tested, and the binding [4] was “binds”, the binding [5] was “binds” and the binding [6] was “binds”.

B13: fel04H09-21 (antibody, V domains shown)
VH: B9 VH with R13K, G15E, L37V, D77N, A89T, T91M, H109Q, T111A, I112L
VL: B10 VL
For B13, the binding [4] was “binds”, the binding [5] was “binds” and the binding [6] was “binds”.

B14: fel04H09-22 (antibody, V domains shown)
VH: B9 VH with R13K, G15E, L37V, D77N, A89T, T91M, H109Q, T111A, I112L
VL: B11 VL
B14 was tested, and the binding [4] was “binds”, the binding [5] was “binds” and the binding [6] was “binds”.

B15: fel04H09-23 (antibody, V domains shown)
VH: B9 VH with R13K, A42E, F45L, D77N, V93M, H109Q, T111A, I112L
VL: B9 VL
In the case of B15, the binding [4] is reported as “binds”, the binding [5] is reported as “binds” and the binding [6] is reported as “binds”.

B16: fel04H09-24 (antibody, V domains shown)
VH: B9 VH with R13K, A42E, F45L, D77N, V93M, H109Q, T111A, I112L
VL: B10 VL
For B16, the binding [4] was “binds” and the binding [5] was “binds”.

B17: fel04H09-25 (antibody, V domains shown)
VH: B9 VH with R13K, A42E, F45L, D77N, V93M, H109Q, T111A, I112L
VL: B11 VL
With B17 the binding [4] was “binds”, the binding [5] was “binds” and the binding [6] was “binds”.
